The results in this text go back to article PMC3590290.

Sequences of proteins named here, by UniProt entry; tags and fusion partners are left off.
UniProt P62258: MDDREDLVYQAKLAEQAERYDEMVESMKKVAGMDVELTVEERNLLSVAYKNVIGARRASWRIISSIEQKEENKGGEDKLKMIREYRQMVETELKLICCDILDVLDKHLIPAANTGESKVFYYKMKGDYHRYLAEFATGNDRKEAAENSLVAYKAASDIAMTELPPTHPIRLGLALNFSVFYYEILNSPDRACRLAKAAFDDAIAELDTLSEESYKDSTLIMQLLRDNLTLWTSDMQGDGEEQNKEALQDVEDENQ

The target in this assay is 3XFlag-14-3-3ε (UniProt P62258). The assay can be described thus: co-IP; 14-3-3ε stable cell lysates immunoprecipitated with anti-Flag antibody on Protein A magnet beads (Millipore), Western blot for Zeb-1. A general note: In western blotting, separated proteins are transferred to a membrane and probed.

These are yes or no findings as the source states them, for the method shown. Binding seen in cells or lysates may run through a third protein.

B1: Zeb-1 (protein, UniProt P37275 1-1124)
chain: MADGPRCKRRKQANPRRNNVTNYNTVVETNSDSDDEDKLHIVEEESVTDAADCEGVPEDDLPTDQTVLPGRSSEREGNAKNCWEDDRKEGQEILGPEAQADEAGCTVKDDECESDAENEQNHDPNVEEFLQQQDTAVIFPEAPEEDQRQGTPEASGHDENGTPDAFSQLLTCPYCDRGYKRFTSLKEHIKYRHEKNEDNFSCSLCSYTFAYRTQLERHMTSHKSGRDQRHVTQSGCNRKFKCTECGKAFKYKHHLKEHLRIHSGEKPYECPNCKKRFSHSGSYSSHISSKKCISLIPVNGRPRTGLKTSQCSSPSLSASPGSPTRPQIRQKIENKPLQEQLSVNQIKTEPVDYEFKPIVVASGINCSTPLQNGVFTGGGPLQATSSPQGMVQAVVLPTVGLVSPISINLSDIQNVLKVAVDGNVIRQVLENNQANLASKEQETINASPIQQGGHSVISAISLPLVDQDGTTKIIINYSLEQPSQLQVVPQNLKKENPVATNSCKSEKLPEDLTVKSEKDKSFEGGVNDSTCLLCDDCPGDINALPELKHYDLKQPTQPPPLPAAEAEKPESSVSSATGDGNLSPSQPPLKNLLSLLKAYYALNAQPSAEELSKIADSVNLPLDVVKKWFEKMQAGQISVQSSEPSSPEPGKVNIPAKNNDQPQSANANEPQDSTVNLQSPLKMTNSPVLPVGSTTNGSRSSTPSPSPLNLSSSRNTQGYLYTAEGAQEEPQVEPLDLSLPKQQGELLERSTITSVYQNSVYSVQEEPLNLSCAKKEPQKDSCVTDSEPVVNVIPPSANPINIAIPTVTAQLPTIVAIADQNSVPCLRALAANKQTILIPQVAYTYSTTVSPAVQEPPLKVIQPNGNQDERQDTSSEGVSNVEDQNDSDSTPPKKKMRKTENGMYACDLCDKIFQKSSSLLRHKYEHTGKRPHECGICKKAFKHKHHLIEHMRLHSGEKPYQCDKCGKRFSHSGSYSQHMNHRYSYCKREAEERDSTEQEEAGPEILSNEHVGARASPSQGDSDERESLTREEDEDSEKEEEEEDKEMEELQEEKECEKPQGDEEEEEEEEEVEEEEVEEAENEGEEAKTEGLMKDDRAESQASSLGQKVGESSEQVSEEKTNEA
Consider B1, for which the binding entry is recorded as “no binding”.
